Data from the supplement of paper PMC10849652.
The other results are listed elsewhere or left out.

Chains of the proteins cited; added tags and fusions are not shown. Lines headed by an entry give the natural chain unless they say otherwise; changes in a name come on top.
UniProt Q9H9Y2: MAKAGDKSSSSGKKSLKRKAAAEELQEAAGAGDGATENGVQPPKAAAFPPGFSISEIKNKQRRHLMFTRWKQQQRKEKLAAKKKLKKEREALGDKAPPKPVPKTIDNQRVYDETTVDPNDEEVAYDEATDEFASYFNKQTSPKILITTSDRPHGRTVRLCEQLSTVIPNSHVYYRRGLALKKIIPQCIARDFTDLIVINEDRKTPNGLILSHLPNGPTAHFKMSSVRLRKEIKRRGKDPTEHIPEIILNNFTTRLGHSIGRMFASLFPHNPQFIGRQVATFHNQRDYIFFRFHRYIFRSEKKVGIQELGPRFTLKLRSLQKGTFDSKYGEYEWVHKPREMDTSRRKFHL
UniProt Q8NCN4: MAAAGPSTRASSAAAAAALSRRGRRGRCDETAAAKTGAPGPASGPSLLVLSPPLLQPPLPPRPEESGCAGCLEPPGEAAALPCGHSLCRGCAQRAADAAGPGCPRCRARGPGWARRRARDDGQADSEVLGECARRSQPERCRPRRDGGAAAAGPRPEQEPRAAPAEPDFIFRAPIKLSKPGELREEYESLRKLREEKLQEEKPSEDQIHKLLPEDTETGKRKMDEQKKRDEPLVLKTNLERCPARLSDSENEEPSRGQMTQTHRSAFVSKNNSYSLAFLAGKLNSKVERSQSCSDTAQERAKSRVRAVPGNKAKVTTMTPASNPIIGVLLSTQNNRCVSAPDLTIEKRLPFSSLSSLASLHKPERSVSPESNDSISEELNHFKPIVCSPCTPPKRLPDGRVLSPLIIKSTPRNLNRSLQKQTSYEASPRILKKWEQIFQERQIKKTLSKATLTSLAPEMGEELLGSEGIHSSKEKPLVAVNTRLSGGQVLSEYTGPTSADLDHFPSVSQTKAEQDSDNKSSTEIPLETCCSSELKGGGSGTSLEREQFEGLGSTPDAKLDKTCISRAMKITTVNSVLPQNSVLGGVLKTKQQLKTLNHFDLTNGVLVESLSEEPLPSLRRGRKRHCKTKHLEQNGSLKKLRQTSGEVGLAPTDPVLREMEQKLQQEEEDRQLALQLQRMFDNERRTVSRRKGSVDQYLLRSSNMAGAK
UniProt O94955, whole entry, looked up: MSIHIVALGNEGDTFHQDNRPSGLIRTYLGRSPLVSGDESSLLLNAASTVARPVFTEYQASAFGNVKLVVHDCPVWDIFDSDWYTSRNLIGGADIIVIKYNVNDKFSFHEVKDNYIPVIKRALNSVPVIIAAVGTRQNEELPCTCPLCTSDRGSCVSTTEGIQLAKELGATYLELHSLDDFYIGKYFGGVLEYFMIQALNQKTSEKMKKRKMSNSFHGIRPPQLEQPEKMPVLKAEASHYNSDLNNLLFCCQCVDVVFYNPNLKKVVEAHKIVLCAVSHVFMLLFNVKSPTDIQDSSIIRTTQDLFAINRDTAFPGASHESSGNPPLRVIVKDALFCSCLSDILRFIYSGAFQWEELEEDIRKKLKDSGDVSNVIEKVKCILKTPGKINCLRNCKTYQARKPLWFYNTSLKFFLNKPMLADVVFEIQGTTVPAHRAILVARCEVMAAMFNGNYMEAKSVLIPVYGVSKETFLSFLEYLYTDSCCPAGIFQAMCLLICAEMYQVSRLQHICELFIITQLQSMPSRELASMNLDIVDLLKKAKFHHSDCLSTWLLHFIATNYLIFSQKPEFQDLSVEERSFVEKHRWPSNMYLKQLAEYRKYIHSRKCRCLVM
UniProt Q8WVD3: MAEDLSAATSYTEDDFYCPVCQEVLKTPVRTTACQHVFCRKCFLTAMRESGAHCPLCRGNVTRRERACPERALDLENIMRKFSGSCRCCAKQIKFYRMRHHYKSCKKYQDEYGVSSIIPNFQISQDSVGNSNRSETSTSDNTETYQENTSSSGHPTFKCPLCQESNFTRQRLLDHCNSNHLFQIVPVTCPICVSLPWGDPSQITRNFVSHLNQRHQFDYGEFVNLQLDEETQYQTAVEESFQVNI
UniProt Q8WU17: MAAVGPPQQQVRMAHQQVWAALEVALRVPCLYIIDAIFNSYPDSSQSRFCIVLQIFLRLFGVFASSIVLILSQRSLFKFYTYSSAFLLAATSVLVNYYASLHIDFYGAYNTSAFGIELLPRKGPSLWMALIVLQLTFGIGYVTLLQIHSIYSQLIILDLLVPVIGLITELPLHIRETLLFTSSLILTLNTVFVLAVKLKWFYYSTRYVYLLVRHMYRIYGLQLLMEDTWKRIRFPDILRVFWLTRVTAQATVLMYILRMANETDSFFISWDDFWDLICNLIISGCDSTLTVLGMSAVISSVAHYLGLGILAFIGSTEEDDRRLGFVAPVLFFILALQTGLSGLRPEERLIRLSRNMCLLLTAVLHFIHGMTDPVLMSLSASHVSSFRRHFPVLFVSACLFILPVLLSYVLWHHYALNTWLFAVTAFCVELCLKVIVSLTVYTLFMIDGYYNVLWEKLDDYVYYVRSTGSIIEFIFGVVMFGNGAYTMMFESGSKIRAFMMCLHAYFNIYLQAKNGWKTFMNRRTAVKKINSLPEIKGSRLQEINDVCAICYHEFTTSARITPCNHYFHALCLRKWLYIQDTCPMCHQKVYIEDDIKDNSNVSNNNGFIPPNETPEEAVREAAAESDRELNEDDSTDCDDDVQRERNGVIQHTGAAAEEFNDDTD
UniProt Q8N5U6: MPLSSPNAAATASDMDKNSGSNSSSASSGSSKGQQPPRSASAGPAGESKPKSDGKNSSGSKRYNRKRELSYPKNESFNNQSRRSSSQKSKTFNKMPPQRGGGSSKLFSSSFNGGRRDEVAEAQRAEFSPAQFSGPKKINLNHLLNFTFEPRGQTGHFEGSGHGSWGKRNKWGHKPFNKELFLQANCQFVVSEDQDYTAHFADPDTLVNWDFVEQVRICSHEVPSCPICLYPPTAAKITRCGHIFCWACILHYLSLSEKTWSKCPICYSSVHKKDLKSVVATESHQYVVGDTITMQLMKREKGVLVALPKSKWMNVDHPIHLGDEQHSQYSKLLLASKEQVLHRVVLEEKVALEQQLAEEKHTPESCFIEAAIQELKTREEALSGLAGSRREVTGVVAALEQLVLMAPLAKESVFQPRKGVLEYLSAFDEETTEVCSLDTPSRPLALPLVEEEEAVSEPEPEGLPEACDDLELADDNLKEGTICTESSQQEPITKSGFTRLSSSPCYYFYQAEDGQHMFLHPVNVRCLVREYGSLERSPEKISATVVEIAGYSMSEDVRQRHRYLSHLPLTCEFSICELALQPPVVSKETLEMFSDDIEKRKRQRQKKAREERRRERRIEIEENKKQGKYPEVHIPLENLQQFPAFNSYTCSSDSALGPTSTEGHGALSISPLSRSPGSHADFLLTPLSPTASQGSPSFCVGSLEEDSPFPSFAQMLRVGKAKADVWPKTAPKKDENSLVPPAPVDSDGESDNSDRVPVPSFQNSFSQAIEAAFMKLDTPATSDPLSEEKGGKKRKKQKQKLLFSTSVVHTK
UniProt Q5M7Z0: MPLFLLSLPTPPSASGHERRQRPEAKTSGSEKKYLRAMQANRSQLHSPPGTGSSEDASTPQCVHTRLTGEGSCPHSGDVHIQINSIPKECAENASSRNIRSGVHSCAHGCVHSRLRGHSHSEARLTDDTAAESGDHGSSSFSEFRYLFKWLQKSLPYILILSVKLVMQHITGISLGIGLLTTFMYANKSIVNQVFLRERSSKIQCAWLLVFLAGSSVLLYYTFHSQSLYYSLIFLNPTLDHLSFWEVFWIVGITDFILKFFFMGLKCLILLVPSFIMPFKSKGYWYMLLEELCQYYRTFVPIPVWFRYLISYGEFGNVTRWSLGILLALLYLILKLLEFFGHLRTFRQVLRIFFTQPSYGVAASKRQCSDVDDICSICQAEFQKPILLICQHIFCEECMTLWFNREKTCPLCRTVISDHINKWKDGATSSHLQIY
UniProt Q92834: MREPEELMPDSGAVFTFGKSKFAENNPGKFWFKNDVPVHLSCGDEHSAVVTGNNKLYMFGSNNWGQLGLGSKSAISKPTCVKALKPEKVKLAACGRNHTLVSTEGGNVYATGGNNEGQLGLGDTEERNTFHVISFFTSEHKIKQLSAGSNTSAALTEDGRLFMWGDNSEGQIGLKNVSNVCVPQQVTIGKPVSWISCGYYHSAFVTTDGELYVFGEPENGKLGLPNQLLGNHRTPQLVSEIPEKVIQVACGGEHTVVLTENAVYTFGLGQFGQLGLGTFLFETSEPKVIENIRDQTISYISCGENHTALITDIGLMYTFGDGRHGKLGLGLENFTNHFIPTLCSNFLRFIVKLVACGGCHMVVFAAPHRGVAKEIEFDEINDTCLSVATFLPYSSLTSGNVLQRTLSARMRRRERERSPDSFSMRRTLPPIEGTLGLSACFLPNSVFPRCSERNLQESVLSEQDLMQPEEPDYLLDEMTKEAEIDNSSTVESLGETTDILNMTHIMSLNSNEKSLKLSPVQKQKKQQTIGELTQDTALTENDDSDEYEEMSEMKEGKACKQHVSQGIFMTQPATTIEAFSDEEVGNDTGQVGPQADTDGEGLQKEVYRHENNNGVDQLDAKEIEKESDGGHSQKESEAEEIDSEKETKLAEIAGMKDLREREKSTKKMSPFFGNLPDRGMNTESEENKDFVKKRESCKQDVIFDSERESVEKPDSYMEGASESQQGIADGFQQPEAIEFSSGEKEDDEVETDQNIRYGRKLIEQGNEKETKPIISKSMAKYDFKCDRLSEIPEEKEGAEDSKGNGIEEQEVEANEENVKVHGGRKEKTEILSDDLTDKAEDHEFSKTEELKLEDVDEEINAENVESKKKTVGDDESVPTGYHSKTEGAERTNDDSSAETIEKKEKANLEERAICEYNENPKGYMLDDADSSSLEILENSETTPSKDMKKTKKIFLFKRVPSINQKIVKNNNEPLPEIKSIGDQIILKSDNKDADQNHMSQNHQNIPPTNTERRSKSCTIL
UniProt Q86XS8: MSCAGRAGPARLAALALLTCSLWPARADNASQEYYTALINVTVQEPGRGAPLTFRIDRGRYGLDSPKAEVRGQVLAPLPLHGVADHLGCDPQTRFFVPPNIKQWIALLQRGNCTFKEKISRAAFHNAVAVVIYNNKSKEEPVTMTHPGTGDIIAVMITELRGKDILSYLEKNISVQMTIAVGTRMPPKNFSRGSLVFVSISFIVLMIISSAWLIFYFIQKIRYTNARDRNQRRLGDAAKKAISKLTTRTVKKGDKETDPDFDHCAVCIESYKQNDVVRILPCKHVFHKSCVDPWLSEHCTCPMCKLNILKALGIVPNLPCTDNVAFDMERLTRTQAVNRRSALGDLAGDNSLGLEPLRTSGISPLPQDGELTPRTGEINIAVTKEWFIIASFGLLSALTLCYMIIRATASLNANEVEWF
UniProt P78317: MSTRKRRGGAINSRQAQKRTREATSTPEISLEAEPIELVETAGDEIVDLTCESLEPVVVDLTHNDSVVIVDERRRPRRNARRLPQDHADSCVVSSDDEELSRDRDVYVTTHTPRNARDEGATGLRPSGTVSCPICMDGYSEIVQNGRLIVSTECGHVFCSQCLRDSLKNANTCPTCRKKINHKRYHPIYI
UniProt O76064: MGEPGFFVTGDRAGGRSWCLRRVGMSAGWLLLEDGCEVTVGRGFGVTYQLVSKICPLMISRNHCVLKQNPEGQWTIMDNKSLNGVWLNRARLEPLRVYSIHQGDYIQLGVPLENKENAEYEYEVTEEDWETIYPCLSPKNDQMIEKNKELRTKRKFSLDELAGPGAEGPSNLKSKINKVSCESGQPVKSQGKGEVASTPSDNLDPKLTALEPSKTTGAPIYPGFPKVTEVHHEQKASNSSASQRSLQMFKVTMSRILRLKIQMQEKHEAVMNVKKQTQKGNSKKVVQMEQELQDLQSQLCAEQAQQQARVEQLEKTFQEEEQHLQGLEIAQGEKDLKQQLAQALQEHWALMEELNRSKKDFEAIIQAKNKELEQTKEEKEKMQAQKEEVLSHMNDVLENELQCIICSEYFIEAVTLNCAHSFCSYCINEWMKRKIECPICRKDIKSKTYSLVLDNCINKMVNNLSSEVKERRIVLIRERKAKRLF
UniProt O43567: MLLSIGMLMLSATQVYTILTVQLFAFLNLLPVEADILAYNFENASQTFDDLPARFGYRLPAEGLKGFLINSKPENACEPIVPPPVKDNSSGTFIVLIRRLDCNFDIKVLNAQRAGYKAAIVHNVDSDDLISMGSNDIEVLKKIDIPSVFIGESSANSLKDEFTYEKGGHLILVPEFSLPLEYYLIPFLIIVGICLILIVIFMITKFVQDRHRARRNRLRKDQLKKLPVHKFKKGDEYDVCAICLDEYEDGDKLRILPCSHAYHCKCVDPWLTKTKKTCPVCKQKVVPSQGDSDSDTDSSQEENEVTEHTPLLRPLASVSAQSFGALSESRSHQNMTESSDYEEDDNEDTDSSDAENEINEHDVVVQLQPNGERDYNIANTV
UniProt P17081: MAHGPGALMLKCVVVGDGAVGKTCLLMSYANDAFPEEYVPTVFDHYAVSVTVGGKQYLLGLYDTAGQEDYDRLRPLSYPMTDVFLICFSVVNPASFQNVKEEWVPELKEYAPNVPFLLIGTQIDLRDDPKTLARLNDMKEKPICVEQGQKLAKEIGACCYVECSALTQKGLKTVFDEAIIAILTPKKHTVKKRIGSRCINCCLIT

Key:
Test in all cases: log2 fold change, soluble protein after heating vs DMSO (PISA); higher = thermal stabilisation; K562 lysate, 10 uM; active = over 0.2 and 3.5 SD of the protein, either way, in both replicates (recomputed)
erlotinib = compound: C#Cc1cccc(Nc2ncnc3cc(OCCOC)c(OCCOC)cc23)c1 [erlotinib]
How it was run: (§1)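 Values give the log-two fold change in thermal stability against solvent controls, from duplicates. Crude K562 extract at 1 mg/mL protein, made by dounce homogenisation in PBS pH 7.4 with 1 mM MgCl2, was treated with 10 μM compound for 30 min. After 3 min heating across 48°C-58°C, aliquots were pooled, adjusted to 0.5% NP-40 at 4°C and centrifuged at 21,000xg for 90 min. The supernatant was measured by TMTpro 16plex LC-MS/MS with channel sums equalised.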

[1] = compound: C1=CC(=CC=C1C2=NC3=C(N2)C=C(C=C3)C(=O)N)OC4=CC=C(C=C4)Cl
How it was run: as §1

[2] = compound: C1=CC=C(C=C1)C2=NC(=C(N2)C3=CC=NC=C3)C4=CC(=C(C=C4)Cl)O
How it was run: as §1

IRAK-1-4 Inhibitor I = compound: C1COCCN1CCN2C3=CC=CC=C3N=C2NC(=O)C4=CC(=CC=C4)[N+](=O)[O-] [IRAK-1-4 Inhibitor I]
How it was run: as §1

ralimetinib = compound: CC(C)(C)Cn1c(N)nc2ccc(-c3[nH]c(C(C)(C)C)nc3-c3ccc(F)cc3)nc21 [ralimetinib]
How it was run: as §1

[3] = compound: CC(C)(O)CC(=O)NCCn1ccc2ncnc(Nc3ccc(Oc4cccc(C(F)(F)F)c4)c(Cl)c3)c21
How it was run: as §1

[4] = compound: CC(C)C1=C2N=C(C=C(N2N=C1)NCC3=CC=CC=C3)NCCCCCCN
How it was run: as §1

[5] = compound: CC1=C(C(CC(=O)N1)C2=CC=C(C=C2)C(F)(F)F)C(=O)NC3=C(C=C4C(=C3)C=NN4)F
How it was run: as §1

[6] = compound: CC1=C(C2=C(C=C1)C(=O)C3=CC=CC=C3N2CCCN)C
How it was run: as §1

[7] = compound: CC1=C(C=C(C=C1)NC(=O)C2=CC(=CC=C2)C(C)(C)C#N)NC3=CC4=C(C=C3)N=CN(C4=O)C
How it was run: as §1

[8] = compound: CC1=C(C=C(C=C1)NC(=O)C2=CC(=CC=C2)N(C)C)NC(=O)C3=CC=C(C=C3)O
How it was run: as §1

[9] = compound: C1=CC2=NC=CN=C2C=C1/C=C/3\C(=O)NC(=O)S3
How it was run: as §1

ibrutinib = compound: C=CC(=O)N1CCC[C@@H](n2nc(-c3ccc(Oc4ccccc4)cc3)c3c(N)ncnc32)C1 [ibrutinib]
How it was run: as §1

[10] = compound: CC(=O)c1cnc2ccc(-c3cc(Cl)c(O)c(Cl)c3)nc2c1N[C@H]1CC[C@H](CN(C)C)CC1
How it was run: as §1

[11] = compound: CC1=CC=C(C=C1)SC2=C3C=C(SC3=CN=C2)C(=O)N
How it was run: as §1

[12] = compound: C1CCN(C1)C(=O)NC2=CC=CC(=C2)NC3=NC=C(C(=N3)NCCC4=CN=CN4)Br
How it was run: as §1

[13] = compound: C1CN(CCC1(CC2=CC=C(C=C2)Cl)N)C3=NC=NC4=C3C=CN4
How it was run: as §1

[14] = compound: C/C(=N\NC(=O)C1=CC(=CC=C1)S(=O)(=O)N2CCOCC2)/C3=C(C=CC(=C3)Cl)O
How it was run: as §1

[15] = compound: C1=CC2=C(C=CC(=C2)/C=C\3/C(=O)NC(=NCC4=CC=CS4)S3)N=C1
How it was run: as §1

[16] = compound: C1=CC=C2C(=C1)C3=NNC4=CC=CC(=C43)C2=O
How it was run: as §1

Measured: log2 fold change

RNF41 (UniProt Q9H4P4)
inactive: erlotinib 0.055 | [1] 0.019 | [2] 0.059 | IRAK-1-4 Inhibitor I -0.317 | ralimetinib -0.091 | [3] -0.066 | [4] -0.158 | [5] -0.103 | [6] 0.103 | [7] -0.023 | [8] -0.032

RNF185 (UniProt Q96GF1)
inactive: erlotinib 0.063 | [1] 0.023 | [9] 0.003 | ibrutinib 0.157 | [10] 0.036 | [4] -0.026 | [5] 0.04 | [11] -0.007

RPF1 (UniProt Q9H9Y2)
inactive: [9] -0.258 | [2] 0.016 | IRAK-1-4 Inhibitor I 0.065 | ibrutinib 0.114 | [10] 0.053 | ralimetinib 0.083 | [3] -0.074 | [7] 0.044 | [8] 0.033 | [11] -0.103

RNPC3 (UniProt Q96LT9)
inactive: erlotinib 0.004 | [1] -0.059 | [2] 0.011 | IRAK-1-4 Inhibitor I 0.076 | [10] 0.017 | ralimetinib 0.02 | [3] -0.029 | [4] -0.122 | [5] -0.027 | [6] -0.015 | [7] -0.028 | [8] 0.054 | [11] -0.003

Quoted at random: two records from the list
RNF185 (UniProt Q96GF1)
inactive: erlotinib 0.063 | [1] 0.023 | [9] 0.003 | ibrutinib 0.157 | [10] 0.036 | [4] -0.026 | [5] 0.04 | [11] -0.007

RPF1 (UniProt Q9H9Y2)
inactive: [9] -0.258 | [2] 0.016 | IRAK-1-4 Inhibitor I 0.065 | ibrutinib 0.114 | [10] 0.053 | ralimetinib 0.083 | [3] -0.074 | [7] 0.044 | [8] 0.033 | [11] -0.103

Later entries.

RNF169 (UniProt Q8NCN4)
inactive: erlotinib 0.406 | [1] 0.163 | [9] -0.08 | [2] 0.089 | IRAK-1-4 Inhibitor I 0.021 | ibrutinib -0.044 | ralimetinib -0.052 | [3] -0.19 | [4] 0.103 | [6] -0.054 | [7] -0.035 | [8] -0.245

RHOBTB3 (UniProt O94955)
inactive: erlotinib -0.014 | [1] 0.256 | [12] -0.211 | [13] -0.005 | [4] 0.029 | [5] 0.159

RPL15, A0A2R8Y738
inactive: erlotinib 0.072 | [1] -0.035 | [9] -0.181 | ibrutinib -0.103 | [10] 0.102 | [4] -0.052 | [5] 0 | [11] -0.169

RPL32 (UniProt D3YTI8)
inactive: erlotinib -0.023 | [1] 0.127 | [10] 0.036 | [4] 0.002 | [6] -0.003 | [11] -0.133

RNF138 (UniProt Q8WVD3)
inactive: [14] -0.011 | [15] -0.046 | [9] 0.013 | [2] 0.023 | [16] 0.021 | [12] 0.067 | [13] -0.058 | IRAK-1-4 Inhibitor I 0.025 | ibrutinib -0.016 | ralimetinib -0.008 | [3] 0.059 | [5] 0.007 | [6] 0.036 | [7] -0.031 | [8] -0.002

RLIM (UniProt Q9NVW2)
inactive: [9] -0.021 | ibrutinib 0.014 | [7] 0.465

RNF139 (UniProt Q8WU17)
inactive: erlotinib 0.035 | [14] -0.047 | [1] -0.279 | [15] -0.028 | [16] 0.024 | [4] 0.275 | [7] 0.011

RPL22L1 (UniProt Q6P5R6)
inactive: [9] 0.028 | [2] 0.239 | [12] -0.593 | [13] -0.688 | IRAK-1-4 Inhibitor I 0.179 | ibrutinib -0.086 | ralimetinib -0.396 | [3] -0.334 | [6] -1.16 | [8] -0.199

RNF10 isoform 2 (UniProt Q8N5U6)
inactive: erlotinib 0.043 | [1] -0.051 | [12] -0.129 | [13] 0.231 | [10] -0.097 | [4] 0.029 | [6] -0.076 | [7] 0.095 | [11] 0.195

RNFT1 (UniProt Q5M7Z0)
inactive: erlotinib -0.062 | [1] -0.003 | [2] -0.106 | [12] 0.059 | [13] 0.042 | IRAK-1-4 Inhibitor I -0.001 | ralimetinib 0.001 | [3] -0.01 | [4] -0.099 | [5] -0.058 | [6] -0.141 | [8] -0.02

ROS1 (UniProt P08922)
inactive: [14] 0.056 | [15] -0.088 | [9] -0.133 | [2] 0.029 | [16] -0.014 | [12] -0.095 | [13] 0.021 | IRAK-1-4 Inhibitor I 0.072 | ibrutinib 0.161 | [10] 0.029 | ralimetinib 0.112 | [3] -0.062 | [5] 0.045 | [6] 0.015 | [7] -0.049 | [8] 0.04 | [11] 0.002

RNF5 (UniProt Q99942)
inactive: erlotinib -0.023 | [1] -0.14 | [9] 0.008 | [2] -0.016 | [12] 0.108 | [13] -0.084 | IRAK-1-4 Inhibitor I -0.047 | ibrutinib 0.037 | ralimetinib 0.065 | [3] 0.047 | [4] -0.013 | [5] -0.004 | [6] 0.005 | [7] 0.073 | [8] 0.006

RNF24 isoform 2 (UniProt Q9Y225)
inactive: erlotinib -0.146 | [1] -0.053 | [9] 0.083 | ibrutinib -0.051 | [4] 0.33 | [5] -0.026 | [7] 0.092

RILPL2 (UniProt Q969X0)
inactive: erlotinib 0.006 | [1] -0.043 | [9] 0.05 | [2] -0.173 | IRAK-1-4 Inhibitor I -0.005 | ibrutinib 0.053 | [10] -0.012 | ralimetinib 0.026 | [3] 0.039 | [4] -0.111 | [5] 0.04 | [7] -0.085 | [8] 0.01 | [11] 0.073

RNF121 (UniProt Q9H920)
inactive: erlotinib -0.048 | [1] -0.065 | [9] 0.034 | [2] 0.061 | IRAK-1-4 Inhibitor I -0.049 | ibrutinib 0.014 | [10] -0.123 | ralimetinib -0.112 | [3] 0.056 | [4] -0.057 | [5] 0.057 | [6] 0.128 | [7] 0.05 | [8] -0.073 | [11] -0.064

RPGR (UniProt Q92834)
inactive: [9] -0.105 | ibrutinib 0.046 | [7] -0.048

RNF130 (UniProt Q86XS8)
inactive: [14] -0.039 | [15] 0.097 | [9] -0.036 | [16] 0.016 | ibrutinib 0.014 | [6] -0.185 | [7] 0.225

RNASEH2B, A0A1B0GUE7
inactive: [10] -0.017 | [5] -0.12 | [11] 0.09

RNF4 (UniProt P78317)
inactive: [14] 0.046 | [15] 0.007 | [9] 0.019 | [2] -0.081 | [16] -0.04 | [12] -0.008 | [13] -0.143 | IRAK-1-4 Inhibitor I -0.14 | ibrutinib -0.073 | ralimetinib -0.004 | [3] -0.172 | [5] 0.059 | [7] 0.154 | [8] -0.068

RNF111 isoform 3 (UniProt Q6ZNA4)
inactive: [7] -0.091

RNF8 (UniProt O76064)
inactive: erlotinib 0.153 | [1] 0.042 | [9] 0.211 | [2] 0.141 | [12] 0.091 | [13] -0.205 | IRAK-1-4 Inhibitor I -0.044 | ibrutinib 0.158 | ralimetinib -0.036 | [3] 0.043 | [4] -0.014 | [5] 0.01 | [6] -0.076 | [7] -0.005 | [8] -0.011

RNF167 (UniProt Q9H6Y7)
inactive: [9] -0.002 | ibrutinib 0.033 | [10] -0.011 | [6] -0.071 | [7] -0.051 | [11] 0.112

RNF13 (UniProt O43567)
inactive: erlotinib -0.161 | [1] 0.085 | [4] 0.052

RPL10, A0A087WV22
inactive: erlotinib -0.294 | [1] -0.319 | [9] -0.357 | [2] -0.05 | IRAK-1-4 Inhibitor I -0.052 | ibrutinib 0.982 | ralimetinib 0.049 | [3] -0.015 | [4] 0.691 | [6] 0.276 | [7] -0.187 | [8] 0.029

RHOQ (UniProt P17081)
inactive: [14] -0.165 | [15] -0.115 | [16] 0.212 | [12] -0.131 | [13] -0.01
